These are yes or no findings as the source states them, for the method shown. In cells and extracts the contact can be indirect. Some results given as binding are weak or reduced against the parent protein; the word gives no strength.
Target: T1, toll‐like receptor 4 (TLR4) (rat (endogenous in rat peritoneal macrophages)) (UniProt Q9QX05)
T1 sequence: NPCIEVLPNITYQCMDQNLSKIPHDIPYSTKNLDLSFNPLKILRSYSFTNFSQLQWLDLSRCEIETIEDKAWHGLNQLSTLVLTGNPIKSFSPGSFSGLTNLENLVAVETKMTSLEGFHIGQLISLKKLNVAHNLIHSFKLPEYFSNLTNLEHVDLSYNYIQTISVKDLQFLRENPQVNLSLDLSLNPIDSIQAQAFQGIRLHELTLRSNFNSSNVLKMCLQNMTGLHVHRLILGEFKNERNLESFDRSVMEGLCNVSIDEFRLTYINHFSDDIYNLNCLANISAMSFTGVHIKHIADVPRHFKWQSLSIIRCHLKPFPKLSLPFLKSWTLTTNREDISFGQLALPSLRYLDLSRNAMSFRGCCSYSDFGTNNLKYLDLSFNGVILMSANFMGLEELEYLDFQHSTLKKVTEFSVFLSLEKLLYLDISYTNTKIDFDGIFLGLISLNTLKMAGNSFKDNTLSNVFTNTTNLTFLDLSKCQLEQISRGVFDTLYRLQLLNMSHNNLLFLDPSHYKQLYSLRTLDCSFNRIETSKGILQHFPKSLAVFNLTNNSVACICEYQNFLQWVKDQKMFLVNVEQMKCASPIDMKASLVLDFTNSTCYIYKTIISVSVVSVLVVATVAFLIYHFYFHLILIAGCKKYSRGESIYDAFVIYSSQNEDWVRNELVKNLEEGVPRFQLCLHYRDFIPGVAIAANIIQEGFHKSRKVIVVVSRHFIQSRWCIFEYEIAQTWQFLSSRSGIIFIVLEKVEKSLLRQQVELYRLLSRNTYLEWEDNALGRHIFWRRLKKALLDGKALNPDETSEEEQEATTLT
Assay: co-IP; macrophages treated with LPS (100 ng/ml) and 3 µg/ml gCTRP9, MD2‐neutralizing antibody (100 ng/ml) or vehicle for 15 min; cell extracts precipitated with anti‐MD2 (blot for TLR4) or anti‐TLR4 (blot for MyD88), protein A magnetic beads, 4°C overnight

The chains behind the UniProt entries cited, without tags or fusion partners.
UniProt Q6Y1S1: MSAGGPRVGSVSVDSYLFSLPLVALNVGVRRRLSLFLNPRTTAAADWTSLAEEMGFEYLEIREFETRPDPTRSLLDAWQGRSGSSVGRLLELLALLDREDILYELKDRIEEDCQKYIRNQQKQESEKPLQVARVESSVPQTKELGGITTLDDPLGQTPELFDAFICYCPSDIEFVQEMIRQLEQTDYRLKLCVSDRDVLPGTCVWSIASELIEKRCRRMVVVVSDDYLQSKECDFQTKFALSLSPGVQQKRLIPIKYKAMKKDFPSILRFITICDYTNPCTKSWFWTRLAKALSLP

binding: binds
Substance: myeloid differentiation factor 88 (MyD88) (from UniProt Q6Y1S1 1-296)

Source: PMC6618013
